Data as given in PubChem BioAssay AID1259254 (NCATS, 2017).

Test: 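Genome-wide screen for genes that prevent DNA re-replication in cancer cells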 (primary screen)
Cell system: human HCT116 colorectal cancer cells
Knock-down reagent: single siRNA against human genes
Time to read-out: 3 days
Measurement: 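Nuclei stained with Hoechst and imaged; cell-cycle phase assigned by DNA content; G2 share scaled per plate, non-targeting siRNA 0%, GMNN siRNA 100%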
Direction: G2 robust z-score and G2 cells, % of GMNN control: higher = more G2 cells, more excess DNA replication
Call rule: 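Active siRNAs have a G2 robust z of 5 or more median absolute deviations over the median, which in these data means about 38% or higher of GMNN control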
The deposit covers about 59,000 reagents; below is a random part of them. In the full data, about 1,550 (2.6%) got an active call. 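G2 share is only a proxy for re-replication; each gene was hit by three separate siRNAs, and active genes were retested.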 Reagents against one gene are numbered here. Not all columns of the deposit are shown. Reagent sequences are not shown. Not given: the amount of reagent.

no.	target	reagent no.	G2 robust z-score	G2 cells, % of GMNN control	Call
1	HMG20A	1	-0.0349	2.72	inactive
2	HMG20A	2	-0.00221	2.95	inactive
3	HMG20A	3	4.47	34.4	inactive
4	ERICH2	1	4.01	31.2	inactive
5	ERICH2	2	0.58	7.05	inactive
6	ERICH2	3	-0.869	-3.15	inactive
7	ERICH2	4	0.48	6.34	inactive
8	ERICH2	5	1.85	16	inactive
9	ERICH2	6	0.316	5.19	inactive
10	AKIRIN2	1	4.9	37.4	inactive
11	AKIRIN2	2	5.14	39.2	active
12	AKIRIN2	3	7.61	56.5	active
13	DEFB105A	1	0.103	3.69	inactive
14	DEFB105A	2	1.19	11.3	inactive
15	DEFB105A	3	0.00449	3	inactive
16	GC	1	4.81	36.8	inactive
17	GC	2	9.87	72.4	active
18	GC	3	0.126	3.85	inactive
19	UCN3	1	1.03	10.2	inactive
20	UCN3	2	-0.683	-1.84	inactive
21	UCN3	3	1.61	14.3	inactive
22	EPHB6	1	2	17	inactive
23	EPHB6	2	1.03	10.2	inactive
24	EPHB6	3	0.212	4.46	inactive
25	SAA2	1	0.645	7.5	inactive
26	SAA2	2	2.23	18.7	inactive
27	SAA2	3	-0.402	0.141	inactive
28	ROCK1P1	1	0.454	6.16	inactive
29	ROCK1P1	2	0.374	5.6	inactive
30	ROCK1P1	3	5.51	41.8	active
31	GCKR	1	-1.63	-8.5	inactive
32	GCKR	2	-0.794	-2.62	inactive
33	GCKR	3	-0.635	-1.5	inactive
34	HCN4	1	-0.595	-1.22	inactive
35	HCN4	2	-0.76	-2.38	inactive
36	HCN4	3	0.271	4.87	inactive
37	ZNF696	1	-0.404	0.122	inactive
38	ZNF696	2	-0.771	-2.46	inactive
39	ZNF696	3	-0.809	-2.72	inactive
40	PLPP7	1	0.76	8.31	inactive
41	PLPP7	2	0.118	3.8	inactive
42	PLPP7	3	-0.484	-0.439	inactive
43	SCN2B	1	0.00955	3.03	inactive
44	SCN2B	2	3.27	26	inactive
45	SCN2B	3	-0.995	-4.03	inactive
46	ISYNA1	1	-1.01	-4.16	inactive
47	ISYNA1	2	-0.173	1.75	inactive
48	ISYNA1	3	0.0973	3.65	inactive
49	STYK1	1	-1.05	-4.43	inactive
50	STYK1	2	-1	-4.1	inactive
51	STYK1	3	4.28	33.1	inactive
52	BACE1	1	0.127	3.86	inactive
53	BACE1	2	2.16	18.1	inactive
54	BACE1	3	-1.16	-5.23	inactive
55	ALDH1A3	1	-0.704	-1.99	inactive
56	ALDH1A3	2	-0.773	-2.47	inactive
57	ALDH1A3	3	-0.698	-1.95	inactive
58	TANGO6	1	1.55	13.8	inactive
59	TANGO6	2	-0.112	2.18	inactive
60	TANGO6	3	-0.147	1.93	inactive
61	GOLGA8G	1	-0.787	-2.57	inactive
62	GOLGA8G	2	1.58	14.1	inactive
63	GOLGA8G	3	1.44	13.1	inactive
64	ANXA11	1	5.39	40.9	active
65	ANXA11	2	-0.663	-1.7	inactive
66	ANXA11	3	0.369	5.56	inactive
67	BIRC7	1	-1.07	-4.53	inactive
68	BIRC7	2	0.617	7.31	inactive
69	BIRC7	3	1.16	11.1	inactive

Active calls, among the entries above:
target	reagent no.	G2 robust z-score	G2 cells, % of GMNN control	Call
AKIRIN2	2	5.14	39.2	active
AKIRIN2	3	7.61	56.5	active
GC	2	9.87	72.4	active
ROCK1P1	3	5.51	41.8	active
ANXA11	1	5.39	40.9	active
